In PMC9507130:
No constants are given. Whether binding was seen depends on the method and setting. For some of these results: Binding calls can cover weak binding; strength is not graded here. For some of these results: Binding seen in cells or lysates may run through a third protein.

Legend:
[1] = target: Vrl1-3HA (over-expressed) (S. cerevisiae); test: co-IP; yeast spheroplast lysates (0.1% Tween-20, 50 mM HEPES, 1 mM EDTA, 50 mM NaCl, pH 7.4); rabbit anti-GFP or anti-HA, Protein A Sepharose, 4 °C; western blot; Vrl1 over-expressed in some panels; vin1Δ strain for Vps5-3HA with Vrl1-Envy
[2] = target: Vrl1^D373A-Envy (S. cerevisiae); test: subcellular recruitment assay (live-cell fluorescence microscopy); mScarletI-tagged prey scored as puncta per cell in yeast that express Envy-tagged Vrl1 constructs or chimeras anchored to endosomes by the Ypt35 PX domain (YPE); some experiments in a vin1Δ strain
[3] = target: Vrl1-Envy (S. cerevisiae); test: as above
[4] = target: Vrl1-Envy (S. cerevisiae); test: co-IP; yeast spheroplast lysates (0.1% Tween-20, 50 mM HEPES, 1 mM EDTA, 50 mM NaCl, pH 7.4); rabbit anti-GFP or anti-HA, Protein A Sepharose, 4 °C; western blot; Vrl1 over-expressed in some panels; vin1Δ strain for Vps5-3HA with Vrl1-Envy

B1: Vin1 (as tested among the yeast SNX-BARs in Figure 3C) (protein, UniProt P36158 1-585)
chain: MENDKASHASPSIGVNEFVVQGEISIDDSERSVKSVSVSISDDEDSKTDVQDNMATPSTRSKFQTDLAIDNRLLEKDPKYKKLFTEKRRRRRPESCINLMTKGKGTGQKDNINDQIFSLRILPGSDLNSLKDSLWIIKISTQPDVEKTIARAFSDFYWLYHQLQNNHWGKTIPPPTRSNILVEKDEFAINHLFMIRNNEKYDPIFNFKPEYIISLQLMAMIKHIFNDKVLRLDSNFIDFISWDDDLPESLQIVVDDSTFTGDKILMTSSQFRELKEFHKQSKKVESITNSHASLIPVTELTEIYISPTKLFSRKDYQRLFQPQSTDNTFNNNDPLIQEWIPKSKTLFTSLSFGSSAPTYQEASTEIQACHDWVSISKEQWKQLLYHVLQYIVDEAVKVNSVINEFTECLKQISLDEVIRANSELFLKFSKLNESFLKKFKGASRQDILKLIILFDENVRFCESFESILNQRLKLGKILSIIEVDLDKKKNFLDKLSPGNNNSNNEDLKIRTAEDEYRIVLKRYNRVKQSWEKIMEDILNERKEFEKREAAEVNSCLKSIRDLNMDEKKHYLQLWQDFVPDEHISQ
With B1 the binding [1] was “binds”.

B2: Vin1-mScarletI (protein, UniProt P36158 1-585)
chain: MENDKASHASPSIGVNEFVVQGEISIDDSERSVKSVSVSISDDEDSKTDVQDNMATPSTRSKFQTDLAIDNRLLEKDPKYKKLFTEKRRRRRPESCINLMTKGKGTGQKDNINDQIFSLRILPGSDLNSLKDSLWIIKISTQPDVEKTIARAFSDFYWLYHQLQNNHWGKTIPPPTRSNILVEKDEFAINHLFMIRNNEKYDPIFNFKPEYIISLQLMAMIKHIFNDKVLRLDSNFIDFISWDDDLPESLQIVVDDSTFTGDKILMTSSQFRELKEFHKQSKKVESITNSHASLIPVTELTEIYISPTKLFSRKDYQRLFQPQSTDNTFNNNDPLIQEWIPKSKTLFTSLSFGSSAPTYQEASTEIQACHDWVSISKEQWKQLLYHVLQYIVDEAVKVNSVINEFTECLKQISLDEVIRANSELFLKFSKLNESFLKKFKGASRQDILKLIILFDENVRFCESFESILNQRLKLGKILSIIEVDLDKKKNFLDKLSPGNNNSNNEDLKIRTAEDEYRIVLKRYNRVKQSWEKIMEDILNERKEFEKREAAEVNSCLKSIRDLNMDEKKHYLQLWQDFVPDEHISQ
B2 was tested, and the binding [2] was “binds” and the binding [3] was “binds”.

B3: Vps5 (as tested among the yeast SNX-BARs in Figure 3C) (protein, UniProt Q92331 1-675)
chain: MDYEDNLEAPVWDELNHEGDKTQSLVSNSIESIGQISTNEERKDNELLETTASFADKIDLDSAPEWKDPGLSVAGNPQLEEHDNSKADDLINSLAPEQDPIADLKNSTTQFIATRESGGALFTGNANSPLVFDDTIYDANTSPNTSKSISGRRSGKPRILFDSARAQRNSKRNHSLKAKRTTASDDTIKTPFTDPLKKAEKENEFVEEPLDDRNERRENNEGKFTASVEKNILEQVDRPLYNLPQTGANISSPAEVEENSEKFGKTKIGSKVPPTEKAVAFKVEVKDPVKVGELTSIHVEYTVISESSLLELKYAQVSRRYRDFRWLYRQLQNNHWGKVIPPPPEKQSVGSFKENFIENRRFQMESMLKKICQDPVLQKDKDFLLFLTSDDFSSESKKRAFLTGSGAINDSNDLSEVRISEIQLLGAEDAAEVLKNGGIDAESHKGFMSISFSSLPKYNEADEFFIEKKQKIDELEDNLKKLSKSLEMVDTSRNTLAASTEEFSSMVETLASLNVSEPNSELLNNFADVHKSIKSSLERSSLQETLTMGVMLDDYIRSLASVKAIFNQRSKLGYFLVVIENDMNKKHSQLGKLGQNIHSEKFREMRKEFQTLERRYNLTKKQWQAVGDKIKDEFQGFSTDKIREFRNGMEISLEAAIESQKECIELWETFYQTNL
B3 was tested, and the binding [1] was “no binding”.

B4: Vps17 (protein, UniProt P32913 1-551)
chain: MTSAVPYDPYDDLDNNPFAEPQEEDSEPAATTTDGSSSMSEERVGTEQTAASVQDNGTANNIQNGLGEEGNATRSKTSNEHNENQQPSQPSERVILPERSDEKKKYTLLAKVTGLERFGSATGKKENPTIIFDCSTNLPTFRKQQYKNVKKSYEEFHQLFKYLNVAIQESFVPTLPSAYTTFGINSEEDRMKVTRNFQLWFNRLSQDPLIIRNEEVAFFIESDFNTYTPINKSKSLASGLKRKTLKQLAPPYDEITELAEFRPLVKSIYVVSQSLQEKLLRVSRNRKMMVQEENAFGQDFVNLDEHNKLYRRYGKILTAVGDIDSIIATMDMATLYDGLEWIVRDAYAVKEALTNRHFIMRNLVQAQQNSKAKQEQARRFRSRRDINPMKIDEALRQLKAAAKNEQVLTLKLQRITSNMIIERKQWISWYEEWIRSSIKEFTLRKIEYERKKLTLLERVRSDIRKADENGGLSRLGRHAVSNNNSDTSQTLKGDSWTGESNRKSQIPINKIAHTEFDDELFTEDDGYNSQDSDTTSLNARHAASLLGMSTK
With B4 the binding [1] was “no binding”.

B5: Mvp1 (protein, UniProt P40959 1-511)
chain: MDNYEGSDPWNTSSNAWTKDDDHVVSTTNSEPSLNGISGEFNTLNFSTPLDTNEEDTGFLPTNDVLEESIWDDSRNPLGATGMSQTPNIAANETVIDKNDARDQNIEESEADLLDWTNNVRKTYRPLDADIIIIEEIPEREGLLFKHANYLVKHLIALPSTSPSEERTVVRRYSDFLWLREILLKRYPFRMIPELPPKRIGSQNADQLFLKKRRIGLSRFINLVMKHPKLSNDDLVLTFLTVRTDLTSWRKQATYDTSNEFADKKISQEFMKMWKKEFAEQWNQAASCIDTSMELWYRITLLLERHEKRIMQMVHERNFFETLVDNFSEVTPKLYPVQQNDTILDINNNLSIIKKHLETTSSICKQETEEISGTLSPKFKIFTDILLSLRSLFERYKIMAANNVVELQRHVELNKEKLESMKGKPDVSGAEYDRIKKIIQKDRRSIIEQSNRAWLIRQCILEEFTIFQETQFLITRAFQDWAKLNSNHAGLKLNEWEKLVTSIMDMPISRE
With B5 the binding [1] was “no binding”.

B6: Snx4 (protein, UniProt P47057 1-423)
chain: MTDKGKNDLTSKAKDKARGNPEKPPYWFEIIVSDPQKRTGDPGSSSGYVSYQISTKTNNTSFYDNRGDPESIIVVHRRYSDLLLLHDILLNRFPTCIIPPLPDKKVFQYIAGDRFSQRFTQKRCHSLQNFLRRVSLHPDLSQSKVFKTFLVSKDWESHRKVLQDSLQPNKDEVTDAFMNAFKTVHKQNEEFTEIREKSDKLDRTVTKIDKLFHKVVKKNDSMSEDYTKLGSNLQELQELVTGENEELAAKLKIFNEGVTQLSYGLQDLTKYLDYEYIVDLKDLEHYIDSMRQLIKLKDQKQIDYEELSDYLTRSIKEKNNLISGYGGSNFFANKLEELAGINQEASRREKINKLEGKITSLTGELENAKKVADGFEQECLKEIDHFESVKTAEIKKSLGSLADHHIEFYERILEAWEKVDDSL
B6 was tested, and the binding [1] was “no binding”.

B7: Snx41 (protein, UniProt Q04053 1-625)
chain: MDYNIFEAVHEQQSSTSDMDLSEEDNNPFVGTHHLYASGIGTTIGEARPENENSPPSSSSLPSSPAHSSSAGSSRASTSSSTSSHAVVEADAETEPFVSLSMSTTATISKFTPHDMNGTQQIQIIDAGDFKDPWGKHAIGYVILYENNKIIRRYSEFHSLRQSLTRLLPTIIIPPIPSKHSLLKYIWSPINAANDSKIISTRKKMLNSFLSNCLNIQEISNDIVFQKFLNPEFNWKDVLSSSPIIILPLNNLLAPPLSPTKPSPLHSILPIPSNSSLRNYNSIWQQHITVKSHNEISNLPTEILQNESQFTHIENLFQNYKRIITHLLKNIRSNKSHFHSLSTYFAELGAYYNAFSLENDITMPNSLRESENNSNNPMMEIISHIEKTGHSFDVIYISSEILIEKYTSILEDPINELLQFLNESFKVLNFKKLKFLQFKILERLIIEKETKLSSLTEIENQLQKINESLTRSTILTDENYKDTKAADLTFVKKDVRSLSKSSSNSSSSGHQNEIHIGASKLNYKTSTPTMNLNKLEIKQLTEQERSKQIKQLNQDLSKLKDCLSICISDMLEINNSSYNSLMHTYNHINLTIGKILKLFAASFKAWIKECLKNWKLAKLQIDEAL
In the case of B7, the binding [1] is reported as “no binding”.

B8: Atg20 (protein, UniProt Q07528 1-640)
chain: MSDLNDVQENAKLNSETRNTGKAEPPHGTTEYVAEAEISKNGVGSPKKSPKKGKVGKGDNNKVETELVHTALLEKDNPFMEEGPTGFTKSALLEIPGMRSHNLKNPNEDYEDDSEGLLPLNQESNAETCRTSLSGSINSMNGETSASEEPSVSNRKKSARIHILEAKRVSEGQGRAYIAYVIQFENSTVQRRYSDFESLRSILIRLFPMTLIPPIPEKQSIKNYGKSITGSSSKYLLPSEGSGSVDLSLSVIHASVNNSDEKLIRHRIRMLTEFLNKLLTNEEITKTSIITDFLDPNNHNWHEFVNSSSTFSSLPKSILQCNPLDPTNTTRIHAMLPIPGSSSQLLLNKESNDKKMDKERSKSFTNIEQDYKQYENLLDNGIYKYNRRTTKTYHDLKSDYNEIGEVFAQFAHEQAQVGELAEQLSYLSNAFSGSSISLEKLVGRLYYNINEPLNESVHMATSARELIKYRKLKYLQNEMIKKSLNSKRAQLEKLEAQNNEYKDVDKIIDNEMSKSHTINLERPNNNTGSGGKSYGGKLFNGFNKLASMVKDSVKYQETDPHTASINLKKEIEQLSESLEVTENDLEVISKVIKNDQLPKFSKEREVDLSEILKHYSRYMRNYARQNLEIWKEVKRHQDFA
For B8, the binding [1] was “no binding”.

B9: Vps5-3HA (protein, UniProt Q92331 1-675)
chain: MDYEDNLEAPVWDELNHEGDKTQSLVSNSIESIGQISTNEERKDNELLETTASFADKIDLDSAPEWKDPGLSVAGNPQLEEHDNSKADDLINSLAPEQDPIADLKNSTTQFIATRESGGALFTGNANSPLVFDDTIYDANTSPNTSKSISGRRSGKPRILFDSARAQRNSKRNHSLKAKRTTASDDTIKTPFTDPLKKAEKENEFVEEPLDDRNERRENNEGKFTASVEKNILEQVDRPLYNLPQTGANISSPAEVEENSEKFGKTKIGSKVPPTEKAVAFKVEVKDPVKVGELTSIHVEYTVISESSLLELKYAQVSRRYRDFRWLYRQLQNNHWGKVIPPPPEKQSVGSFKENFIENRRFQMESMLKKICQDPVLQKDKDFLLFLTSDDFSSESKKRAFLTGSGAINDSNDLSEVRISEIQLLGAEDAAEVLKNGGIDAESHKGFMSISFSSLPKYNEADEFFIEKKQKIDELEDNLKKLSKSLEMVDTSRNTLAASTEEFSSMVETLASLNVSEPNSELLNNFADVHKSIKSSLERSSLQETLTMGVMLDDYIRSLASVKAIFNQRSKLGYFLVVIENDMNKKHSQLGKLGQNIHSEKFREMRKEFQTLERRYNLTKKQWQAVGDKIKDEFQGFSTDKIREFRNGMEISLEAAIESQKECIELWETFYQTNL
For B9, the binding [4] was “no binding”.
